# Structures can show the parent of a compound that is named as a salt. About 50 (4%) of roughly 1,200 compounds showed activity. No stated cut-off is given here; in the data, all actives reach 1.3 or more but so do some inactives. The list shows a part of the results.
# Test system: Lgr5 (MarsCy1-Lgr5-EGFP, U2OS)
# Assay: cell-surface Lgr5 expression (SCi1 fluorescence, background-subtracted) relative to WT DMSO (fold of DMSO control); higher = more Lgr5 at the plasma membrane, active = hit call of the paper
# Details: U2OS MarsCy1-Lgr5-EGFP stable; treatment time: overnight; 16 µM; library: Johns Hopkins Clinical Compound Library
row,SMILES,cell-surface Lgr5 expression
1,C#CCN(C)Cc1ccccc1 [Pargyline (N-Methyl-N-Propargylbenzylamine)],inactive: 0.981
2,COc1ccc2cc(CCC(C)=O)ccc2c1 [Nabumetone],active: 1.32
3,O=C(O)CCC(=O)OC[C@@H](NC(=O)C(Cl)Cl)[C@H](O)c1ccc([N+](=O)[O-])cc1 [Chloramphenicol succinate sodium salt],inactive: 0.813
4,CCCCCC(C)N (centres undefined) [Tuaminoheptane (2-aminoheptane)],inactive: 1.06
5,CCN(CC)CCNC(=O)c1cc(S(C)(=O)=O)ccc1OC [Tiapride],inactive: 1.28
6,"CC1(C)OC(=O)NC1=O [Dimethadione (5,5 dimethyl-2,4oxazolidinedione)]",inactive: 1.28
7,N=C(N)NCC1COC2(CCCCC2)O1 (centres undefined) [Guanadrel sulfate],inactive: 1.02
8,Cn1nnnc1SCC1=C(C(=O)O)N2C(=O)[C@@H](NC(=O)[C@H](O)c3ccccc3)[C@H]2SC1 [Cefamandole],inactive: 1.1
9,CCCC(=O)O[C@]1(C(=O)COC(C)=O)CC[C@H]2[C@@H]3C[C@H](F)C4=CC(=O)C=C[C@]4(C)[C@@]3(F)[C@@H](O)C[C@@]21C,active: 1.57
10,Nc1ccc(C(=O)NCC(=O)O)cc1 [Aminohippuric acid (p-aminohippuritic acid)],inactive: 0.677
11,Nc1ccc(S(=O)(=O)c2ccc(N)cc2)cc1 [Dapsone (4-Aminophenyl sulfone)],inactive: 1.25
12,Nc1ccc(S(=O)(=O)c2ccc(N)cc2)cc1,inactive: 0.776
13,OC[C@H]1O[C@@H](Oc2ccc(O)cc2)[C@H](O)[C@@H](O)[C@@H]1O [Arbutin],inactive: 0.885
14,[Br-].[Br-].[Mg+2] [Magnesium bromide],inactive: 0.496
15,N[C@H]1C(O)O[C@H](CO)[C@@H](O)[C@@H]1O (some centres undefined) [Glucosamine],inactive: 1.06
16,O=P([O-])([O-])[O-].O=P([O-])([O-])[O-].[Ca+2].[Ca+2].[Ca+2] [Calcium phosphate tribasic],inactive: 0.836
17,C=C1C[C@H]2[C@@H]3C=C(C)C4=CC(=O)CC[C@]4(C)[C@H]3CC[C@]2(C)[C@@]1(OC(C)=O)C(C)=O [Melengestrol acetate],active: 1.58
18,O[C@@H]1[C@H](O)[C@@H](O)C=C[C@H]1O [Conduritol],inactive: 1.03
19,CC(=O)Oc1cccc2c1C(=O)c1c(OC(C)=O)cc(C(=O)O)cc1C2=O [Diacerein],inactive: 0.994
20,Cc1ncc(CSSCc2cnc(C)c(O)c2CO)c(CO)c1O [Pyrithioxin],inactive: 1.16
21,CN1CCCCC1CCN1c2ccccc2Sc2ccc([S+](C)[O-])cc21 (centres undefined) [Mesoridazine besylate],inactive: 0.596
22,NC(=O)N/N=C/c1ccc([N+](=O)[O-])o1 [Nitrofurazone (5-Nitro-2-Furaldehyde Semicarbazone)],inactive: 1.1

# Already shown: an excerpt of the list.
row,SMILES,cell-surface Lgr5 expression
15,N[C@H]1C(O)O[C@H](CO)[C@@H](O)[C@@H]1O (some centres undefined) [Glucosamine],inactive: 1.06
16,O=P([O-])([O-])[O-].O=P([O-])([O-])[O-].[Ca+2].[Ca+2].[Ca+2] [Calcium phosphate tribasic],inactive: 0.836
17,C=C1C[C@H]2[C@@H]3C=C(C)C4=CC(=O)CC[C@]4(C)[C@H]3CC[C@]2(C)[C@@]1(OC(C)=O)C(C)=O [Melengestrol acetate],active: 1.58

# Continuation.

row,SMILES,cell-surface Lgr5 expression
1,CN(C)CCC[C@@]1(c2ccc(F)cc2)OCc2cc(C#N)ccc21 [Escitalopram oxalate],inactive: 0.627
2,FC(F)(F)C(F)(F)C(F)(F)C(F)(F)C(F)(F)C(F)(F)C(F)(F)C(F)(F)Br [Perflubron (Perfluorooctyl bromide)],inactive: 0.824
3,CN1CCCC(n2nc(Cc3ccc(Cl)cc3)c3ccccc3c2=O)CC1 (centres undefined) [Azelastine HCl],inactive: 1.03
4,C1CNCCN1 [Piperazine],inactive: 1.21
5,Nc1cc(C(Cl)=C(Cl)Cl)c(S(N)(=O)=O)cc1S(N)(=O)=O [Clorsulon],inactive: 1.12
6,COc1ccc(CCN(C)CCCC(C#N)(c2cc(OC)c(OC)c(OC)c2)C(C)C)cc1OC (centres undefined) [Gallopamil (methoxyverapamil)],inactive: 1.27
7,CN1CCN(c2c(F)cc3c(=O)c(C(=O)O)cn(CCF)c3c2F)CC1 [Fleroxacin],inactive: 1.11
8,NNc1nncc2ccccc12 [Hydralazine],inactive: 0.924
9,CC(=O)OCC(CCn1cnc2cnc(N)nc21)COC(C)=O [Famciclovir],inactive: 0.923
10,[Br-].[Br-].[Ca+2] [Calcium bromide],inactive: 0.565
11,CN1CCN(CCCN2c3ccccc3Sc3ccc(Cl)cc32)CC1 [Prochlorperazine dimaleate salt],inactive: 1.01
12,CN1CCN(CCCN2c3ccccc3Sc3ccc(Cl)cc32)CC1 [Prochlorperazine dimaleate],inactive: 0.945
13,CC(=O)[C@]1(O)Cc2c(O)c3c(c(O)c2[C@@H](O[C@H]2C[C@H](N)[C@H](O)[C@H](C)O2)C1)C(=O)c1ccccc1C3=O [Idarubicin],inactive: 0.619
14,CCN(CC)CCc1nc(-c2ccccc2)no1 [Oxolamine],inactive: 1.17
15,CNCC(O)c1ccc(OC(=O)C(C)(C)C)c(OC(=O)C(C)(C)C)c1 (centres undefined) [Dipivefrin HCl],active: 1.42
16,CCCCCC[C@@H](O)C/C=C\CCCCCCCC(=O)O [Potassium ricinoleate],inactive: 1.24
17,Cc1c(N(C)CS(=O)(=O)O)c(=O)n(-c2ccccc2)n1C [Dipyrone],inactive: 1.18
18,CN(C)[C@@H]1C(O)=C(C(=O)NCN2CCCC2)C(=O)[C@@]2(O)C(O)=C3C(=O)c4c(O)cccc4[C@@](C)(O)[C@H]3C[C@@H]12 [Rolitetracycline],inactive: 0.735
19,"CC(NCCC(c1ccccc1)c1ccccc1)c1ccccc1 (centres undefined) [Fendiline (3,3-Diphenyl-N-1-propanamine)]",inactive: 0.941
20,O=c1[nH]c(=O)n(C2CCCO2)cc1F (centres undefined) [Tegafur (Ftorafur)],inactive: 1.14
21,N=C(N)NCCCC[C@@H]1NC(=O)CCSSC[C@@H](C(N)=O)NC(=O)[C@@H]2CCCN2C(=O)[C@H](Cc2c[nH]c3ccccc23)NC(=O)[C@H](CC(=O)O)NC(=O)CNC1=O [Eptifibatide],inactive: 0.905
22,O=C(O)c1cc(-c2ccccc2)nc2ccccc12 [Cinchophen (2-phenyl 4-quinoline carboxylic acid)],active: 1.45

# — the supplement of paper PMC4683952
